Paper PMC5928165
No constants are given. Whether binding was seen depends on the method and setting. In cells and extracts the contact can be indirect. Some binding calls cover weakened binding; strength is not graded here.

Sequences of proteins named here, by UniProt entry; tags and fusion partners are left off.
UniProt P17676: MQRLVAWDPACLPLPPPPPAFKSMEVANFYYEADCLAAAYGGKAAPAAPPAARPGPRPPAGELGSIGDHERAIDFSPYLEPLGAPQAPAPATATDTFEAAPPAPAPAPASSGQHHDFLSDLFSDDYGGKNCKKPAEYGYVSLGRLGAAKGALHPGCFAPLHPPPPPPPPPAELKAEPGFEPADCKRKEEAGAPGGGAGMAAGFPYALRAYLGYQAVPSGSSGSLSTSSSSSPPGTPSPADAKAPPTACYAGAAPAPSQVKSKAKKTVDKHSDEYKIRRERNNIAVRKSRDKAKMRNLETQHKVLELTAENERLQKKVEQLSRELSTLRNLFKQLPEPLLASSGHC
UniProt Q8TEK3: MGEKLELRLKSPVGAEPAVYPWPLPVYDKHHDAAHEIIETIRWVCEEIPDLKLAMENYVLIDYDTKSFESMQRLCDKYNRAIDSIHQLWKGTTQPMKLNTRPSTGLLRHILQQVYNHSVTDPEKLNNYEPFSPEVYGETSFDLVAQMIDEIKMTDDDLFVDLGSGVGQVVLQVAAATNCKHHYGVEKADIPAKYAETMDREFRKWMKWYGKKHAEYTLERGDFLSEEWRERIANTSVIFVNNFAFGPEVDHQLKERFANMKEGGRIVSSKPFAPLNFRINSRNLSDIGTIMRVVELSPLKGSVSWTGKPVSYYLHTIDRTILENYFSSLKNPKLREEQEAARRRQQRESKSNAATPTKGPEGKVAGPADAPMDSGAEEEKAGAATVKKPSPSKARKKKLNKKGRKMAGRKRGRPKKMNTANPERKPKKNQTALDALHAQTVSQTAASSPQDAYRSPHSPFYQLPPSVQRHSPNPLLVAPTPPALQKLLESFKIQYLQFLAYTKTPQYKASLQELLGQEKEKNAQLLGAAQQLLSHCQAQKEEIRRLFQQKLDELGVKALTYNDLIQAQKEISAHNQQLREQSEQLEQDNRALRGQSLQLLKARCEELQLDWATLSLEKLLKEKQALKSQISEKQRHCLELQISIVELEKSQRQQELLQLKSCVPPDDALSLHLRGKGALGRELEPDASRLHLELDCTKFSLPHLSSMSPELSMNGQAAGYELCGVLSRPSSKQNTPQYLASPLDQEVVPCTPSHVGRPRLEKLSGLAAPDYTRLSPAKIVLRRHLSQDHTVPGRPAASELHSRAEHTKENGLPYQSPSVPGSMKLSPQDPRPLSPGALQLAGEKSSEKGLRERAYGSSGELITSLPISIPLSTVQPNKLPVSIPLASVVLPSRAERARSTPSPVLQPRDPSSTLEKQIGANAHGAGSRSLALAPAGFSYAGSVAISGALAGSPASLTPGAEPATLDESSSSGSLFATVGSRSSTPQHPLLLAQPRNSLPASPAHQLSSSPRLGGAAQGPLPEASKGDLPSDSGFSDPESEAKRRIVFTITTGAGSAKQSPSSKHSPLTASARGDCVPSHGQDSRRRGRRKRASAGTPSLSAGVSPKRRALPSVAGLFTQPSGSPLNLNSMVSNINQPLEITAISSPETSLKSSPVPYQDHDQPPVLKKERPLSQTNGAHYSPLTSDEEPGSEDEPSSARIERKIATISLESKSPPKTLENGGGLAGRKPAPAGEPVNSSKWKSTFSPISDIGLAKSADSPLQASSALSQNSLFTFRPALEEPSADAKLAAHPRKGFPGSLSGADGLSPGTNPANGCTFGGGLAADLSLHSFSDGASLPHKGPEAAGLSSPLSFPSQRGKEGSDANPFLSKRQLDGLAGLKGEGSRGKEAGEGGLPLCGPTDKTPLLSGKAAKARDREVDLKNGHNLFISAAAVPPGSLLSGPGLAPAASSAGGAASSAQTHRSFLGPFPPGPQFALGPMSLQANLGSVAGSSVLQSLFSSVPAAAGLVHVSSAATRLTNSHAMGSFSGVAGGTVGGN

Target: CCAAT/enhancer-binding protein β (human (endogenous in C13*)) (UniProt P17676)
Assay: co-IP; lysates from C13* cells; Pierce Crosslink Immunoprecipitation Kit; IP with mouse anti-C/EBPβ and blot with rabbit anti-DOT1L, and the reciprocal; normal mouse IgG and rabbit IgG as controls

binding: binds
Substance: DOT1L (from UniProt Q8TEK3 1-1537) (enzyme)
